Among the data in PMC7819943, “Rice protein-binding microarrays: a tool to detect cis-acting elements near promoter regions in rice” are binding signal values, retold here.

Some of the results follow.

The assay deals with T1, OsSMF1 (Oryza sativa, UniProt Q6ZLB0 1-436).
T1 sequence: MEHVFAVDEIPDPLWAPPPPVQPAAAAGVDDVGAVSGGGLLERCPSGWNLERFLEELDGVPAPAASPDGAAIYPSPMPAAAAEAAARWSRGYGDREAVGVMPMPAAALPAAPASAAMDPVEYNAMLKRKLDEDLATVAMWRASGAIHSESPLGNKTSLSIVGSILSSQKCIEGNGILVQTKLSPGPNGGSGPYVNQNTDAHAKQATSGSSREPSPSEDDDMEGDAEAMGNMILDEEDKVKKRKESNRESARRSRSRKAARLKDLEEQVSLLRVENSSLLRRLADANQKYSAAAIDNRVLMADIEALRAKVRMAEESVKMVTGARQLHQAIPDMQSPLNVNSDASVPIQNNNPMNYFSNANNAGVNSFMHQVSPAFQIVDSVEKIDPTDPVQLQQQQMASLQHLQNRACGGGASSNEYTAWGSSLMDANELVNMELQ
Kind of assay: protein-binding microarray (RPBM); PBS, 2% BSA, 51.3 ng/ul salmon testes DNA, 50 uM zinc acetate, 200 nM TF, 25 C, 1 h; high values mean tight binding. The settings on record: protein: recombinant; tags: N-terminal polyhistidine and DsRed monomer fusion (pET32a); chain copies: 2; label: CyDye5-dUTP incorporated in the synthesized complementary strand; 3' TTTTT single-stranded linker to array surface; dsDNA, one strand shown. Put shortly: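 The binding signal is fluorescence intensity per array feature (arbitrary units). Readings came from an Axon 4000B scanner after a washed, 2% BSA-blocked, double-stranded custom Agilent array had been incubated for 1 h at 25 °C with 200 nM protein and 50 µM zinc acetate. The protein was a Ni–NTA-purified transcription factor fused N-terminally to polyhistidine and DsRed, expressed in E. coli BL21-CodonPlus.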
As to “ACACTGCGTTTACGTGTTTGGCTTGGGTCTTGGGTCTTGGCGGAGTCACCTAGTGCAG”, the binding signal is 4640 fluorescence intensity (a.u.).

For “TGTATAGACTGACGATGGTGACGATGCGCTTGGAGGCGGCCGGAGTCACCTAGTGCAG”, the binding signal is 5340 fluorescence intensity (a.u.).

“ACCAAAATTCTCATATCTCTCAACTAAACAAAACTCTTAACGGAGTCACCTAGTGCAG”: the binding signal was 3300 fluorescence intensity (a.u.).

Turning to “ACGATAGATCGGGGATTTGAGATCTGAGGTGGCACGGACACGGAGTCACCTAGTGCAG”, the binding signal was 7620 fluorescence intensity (a.u.).

In the case of “AGGGCACGTCATTATCGATCATCACCCGATCCATCGAGCACGGAGTCACCTAGTGCAG”, the binding signal was 4610 fluorescence intensity (a.u.).

Consider “AAAACTCCAACACGATAACGTGGCAGGCTGGCGGCGGGCCCGGAGTCACCTAGTGCAG”, for which the binding signal is 4250 fluorescence intensity (a.u.).

Regarding “GCGGATGACGCGGCACGCTGGCTTGTGGGAGCACACAATCCGGAGTCACCTAGTGCAG”, the binding signal was 31500 fluorescence intensity (a.u.).

As for “CAAACGGGACGAATTCCTAACCCTCGTCATCCGTCCCTTCCGGAGTCACCTAGTGCAG”, the binding signal was 4710 fluorescence intensity (a.u.).

Take “CCGTGTGAATAATCTCGAGCTAGTACGATCCACACGATTACGGAGTCACCTAGTGCAG”: the binding signal was 3450 fluorescence intensity (a.u.).

As for “TATAAAGAAAATATGTTGTTTTGGGTAGTGAGTAGTGACGCGGAGTCACCTAGTGCAG”, the binding signal is 3310 fluorescence intensity (a.u.).

Take “CGTACGTAGCTAGTGCAGCACGTATTACTACTATAGTTGTCGGAGTCACCTAGTGCAG”: the binding signal is 3180 fluorescence intensity (a.u.).

As to “GGACACCGTCTCAACATCCATCACCTCGTCGACGTCATTCCGGAGTCACCTAGTGCAG”, the binding signal is 7550 fluorescence intensity (a.u.).

Take “CGCAACATCCGCGTCTGCCTCACTCCTGGCCAGCGCCTAGCGGAGTCACCTAGTGCAG”: the binding signal is 3190 fluorescence intensity (a.u.).

On to “TTAATATACATATATATGTCACTCCTTGCTAGACACATGGCGGAGTCACCTAGTGCAG”, for which the binding signal was 5350 fluorescence intensity (a.u.).

For “CCTCTCCTCTCCATATGTTGAGTTGTTGACCTCCGGCGGCCGGAGTCACCTAGTGCAG”, the binding signal was 12800 fluorescence intensity (a.u.).

Regarding “CGAAGTCGTGCTGCGCTCCGACTCAGCTGCATCGTCACTCCGGAGTCACCTAGTGCAG”, the binding signal is 5960 fluorescence intensity (a.u.).

With “CCTCAATTCAACCTGATGTCATACATCGAGTTGCATTGTCCGGAGTCACCTAGTGCAG”, the binding signal is 5440 fluorescence intensity (a.u.).

For “TCATTGCCACCTCTGTCATGTGTAAATGATGCTTCTATTTCGGAGTCACCTAGTGCAG”, the binding signal is 3300 fluorescence intensity (a.u.).

Regarding “AGCTTACTATGATACCGATGAACACGTTATGACAACAAACCGGAGTCACCTAGTGCAG”, the binding signal was 3880 fluorescence intensity (a.u.).

Turning to “GTAGGTTCCAGATATGTCCACGTCACCACAGAATGAAATGCGGAGTCACCTAGTGCAG”, the binding signal is 7710 fluorescence intensity (a.u.).

“ATAAAGAATCTGAAGCTGAATAATTATAGCTTAGCTAACTCGGAGTCACCTAGTGCAG”: the binding signal was 28400 fluorescence intensity (a.u.).

With “TTTGGTCCCACTTATGGGCCCATTGTCAGTGCCAAACCTACGGAGTCACCTAGTGCAG”, the binding signal was 3310 fluorescence intensity (a.u.).

Consider “TCATCCATCAGATATCCTCCACGTGTTGTCCTCGATCCCGCGGAGTCACCTAGTGCAG”, for which the binding signal is 6770 fluorescence intensity (a.u.).

As to “CGCCACGGCCCCGTCATCTCCATCCGCCTCTTCGGCACCACGGAGTCACCTAGTGCAG”, the binding signal is 7780 fluorescence intensity (a.u.).

Regarding “GTGAAATCCGATTTGAATTTCGCGAAATCCAGTTTTCTTGCGGAGTCACCTAGTGCAG”, the binding signal was 3260 fluorescence intensity (a.u.).

Regarding “CGGCATTGACCTGGTCTTTGTTCCACGTGGCGCTTAGGTGCGGAGTCACCTAGTGCAG”, the binding signal is 8840 fluorescence intensity (a.u.).

Turning to “GACAAGCGTTGGCAGCTAGCTGCGCGCCTCCACGTTGTTCCGGAGTCACCTAGTGCAG”, the binding signal was 3660 fluorescence intensity (a.u.).

With “AAGTGGTGTCTGACCAGGAAATCACGAATTTGTCAACATGCGGAGTCACCTAGTGCAG”, the binding signal was 3520 fluorescence intensity (a.u.).

“ATGGTCATGAGGAAGAAAAGTGGCACTTCACGGGCAACCCCGGAGTCACCTAGTGCAG”: the binding signal is 4260 fluorescence intensity (a.u.).

For “GAGGCGGCGGCGGAGAAGGTGAAGGAGATGAATAGGCTTCCGGAGTCACCTAGTGCAG”, the binding signal was 3170 fluorescence intensity (a.u.).

Regarding “ATCATGTACATCTCATAGTCAACAATATTCATCACAATCTCGGAGTCACCTAGTGCAG”, the binding signal is 3640 fluorescence intensity (a.u.).

As for “CTGTGTCATGGCATGGCCACCTCATCATTTGTTTTAGTCCCGGAGTCACCTAGTGCAG”, the binding signal was 8690 fluorescence intensity (a.u.).

“ACGATATATTTTACTAATTAAAATGTACCGTGACTAAGCACGGAGTCACCTAGTGCAG”: the binding signal is 7460 fluorescence intensity (a.u.).

In the case of “GACGATACTAGTACAGCATACATGTCGTGGCGTTCAACTTCGGAGTCACCTAGTGCAG”, the binding signal was 4620 fluorescence intensity (a.u.).

Turning to “CCCTTGTCCATCCGCCAACGCCACGTCACCTCCTCCGCTACGGAGTCACCTAGTGCAG”, the binding signal was 52100 fluorescence intensity (a.u.).

Turning to “GACCGAAGTCGCATACAAATGGGTGTGAGATTGTGAGAGACGGAGTCACCTAGTGCAG”, the binding signal was 4030 fluorescence intensity (a.u.).

Regarding “GTCAACTACACATCATCCCGCTGACGTCAACAGCAGACGACGGAGTCACCTAGTGCAG”, the binding signal was 8720 fluorescence intensity (a.u.).

For “GTAGTTTGAGAAGCAGTACGTGACTGTGAGAGAGCGACTACGGAGTCACCTAGTGCAG”, the binding signal was 3340 fluorescence intensity (a.u.).

For “ATGGTGTTATGTGAAGTGTGATGATGCAAGAATGAAGTTACGGAGTCACCTAGTGCAG”, the binding signal was 4230 fluorescence intensity (a.u.).

Take “ATGTCCGGGCTTCTCACTGCCATGTGGGCCCCACTTGTCTCGGAGTCACCTAGTGCAG”: the binding signal is 3180 fluorescence intensity (a.u.).

With “TATCCCTCCCGCCGCCCGCGACGTCACCTCCTGGAACTCCCGGAGTCACCTAGTGCAG”, the binding signal was 4460 fluorescence intensity (a.u.).

Turning to “TGTAACCCGACCACGCGTCAGTCCGGTGACATCCCGCTGCCGGAGTCACCTAGTGCAG”, the binding signal is 6010 fluorescence intensity (a.u.).
